Experimental data: patent publication US20100021918A1, “METHOD FOR ASSAYING ACTION OF ANTITUMOR AGENT USING SPLICING DEFECTS AS INDEX” (Eisai R&D Management Co., Ltd., priority 2007, published 2010)
Further values from the same series stand in other lists.

Test system: peripheral blood mononuclear cells (PBMC)
Test: Microarray analysis (3), dose-dependent intron expression in PBMC at 3, 10, 30 nM, Table 5
Type: cell-based, human
Protocol: PBMC was suspended in RPMI1640 medium (containing 10% FBS, penicillin, and streptomycin) to 5×10^6 cells/ml and 1 ml of the suspension was plated per well of a 24-well plate. Immediately, 111 μl of 10 times-concentrated (8E,12E,14E)-7-((4-cycloheptylpiperazin-1-yl)carbonyl)oxy-3,6,16,21-tetrahydroxy-6,10,12,16,20-pentamethyl-18,19-epoxytricosa-8,12,14-trien-11-olide was added to the well (six wells per each concentration tested). The cells were then cultured in an incubator with 5% carbon dioxide gas at 37° C. Three hours later, the supernatant was collected and centrifuged at 1500 rpm for five minutes. TRI reagent (SIGMA) (1 ml) was added to each well of the plate from which the supernatant was removed to harvest the cells, which was added to the centrifuged pellet to dissolve. RNA was purified in accordance with the protocol of TRI reagent. RNA was further purified using RNeasy (QIAGEN) and, in accordance with the protocol, DNaseI was added to the samples during the procedure. Absorbance at 260 nm was measured to quantify an amount of RNA.
Ribosomal RNA was removed from 1 μg of each total RNA of control cells (n=3) and cells with the treatment (n=3) using RiboMinus Human/Mouse Transcriptome Isolation Kit (Invitrogen). Single stranded cDNA synthesis, double stranded cDNA synthesis, cRNA synthesis, second single stranded cDNA synthesis, cDNA fragmentation, and cDNA labeling in order were carried out for total RNA from which ribosomal RNA was removed, using GeneChip Whole Transcript Sense Target Labeling and Control Reagents (Affymetrix) to make a cDNA probe. Subsequently, the cDNA probe was used for hybridization with Human Exon 1.0 ST Array (Affymetrix). The array was washed and stained, and luminescence intensity was measured by a scanner.
The expression level of the probe set and the gene was quantified by using Expression Console Ver. 1.0 (Affymetrix) with Summarization Method and Normalization Method being set to “Median polish as used in RMA” and “None”, respectively. The expression level of the probe was normalized with that of the gene.
Probe sets showing that the normalized change in the level expression of the probe set in the group with the treatment at 30 nM was more than 5 times; the expression level of the probe set and the gene in the group with the treatment at 30 nM was more than 100; and probe set annotation was “extended, full, free”, were picked out. Regression analysis was performed with the probe sets extracted for the control group, the group with the treatment at 3 nM, the group with the treatment at 10 nM, and the group with the treatment at 30 nM to determine a p and q value for the slope of regression formula. A gene containing the probe sets with the q value of less than 5% was determined as a candidate gene with increased expression level of the intron regions (Table 5).
In Table 5, for the gene evaluated, gene name (Gene Name), abbreviated name (Gene Symbol), accession number (Accession), alias name (Synonym), transcription cluster number in Human Exon 1.0 ST Array (Human Exon 1.0 ST Array Transcription Cluster ID), chromosome number (Chromosome), type of strand (Strand), start region (Start), stop region (Stop), and change in expression level per 1 nM (Fold Change/nM) were respectively shown.

CCC(O)C(C)C1OC1CC(C)(O)/C=C/C=C(\C)C1OC(=O)CC(O)CCC(C)(O)C(OC(=O)N2CCN(C3CCCCCC3)CC2)/C=C/C1C (centres unmarked) [E7107, (8E,12E,14E)-7-((4-cycloheptylpiperazin-1-yl)carbonyl)oxy-3,6,16,21-tetrahydroxy-6,10,12,16,20-pentamethyl-18,19-epoxytricosa-8,12,14-trien-11-olide]
Fold Change/nM (gene IBRDC2 introns, regression over control, 3, 10, 30 nM): 1.05 nM⁻¹ | Fold Change/nM (gene IFIT3 introns, regression over control, 3, 10, 30 nM): 1.05 nM⁻¹ | Fold Change/nM (gene IK introns, regression over control, 3, 10, 30 nM): 1.05 nM⁻¹ | Fold Change/nM (gene ILF2, intron expression, 3, 10, 30 nM): 1.06 nM⁻¹ | Fold Change/nM (gene INTS6 introns, regression over control, 3, 10, 30 nM): 1.05 nM⁻¹ | Fold Change/nM (gene ITCH introns, regression over control, 3, 10, 30 nM): 1.05 nM⁻¹ | Fold Change/nM (gene KIAA0174 introns, regression over control, 3, 10, 30 nM): 1.05 nM⁻¹ | Fold Change/nM (gene KIAA0247 introns, regression over control, 3, 10, 30 nM): 1.05 nM⁻¹ | Fold Change/nM (gene KLF10 introns, regression over control, 3, 10, 30 nM): 1.05 nM⁻¹ | Fold Change/nM (gene KLHL6 introns, regression over control, 3, 10, 30 nM): 1.05 nM⁻¹ | Fold Change/nM (gene LAIR1, intron expression, 3, 10, 30 nM): 1.06 nM⁻¹ | Fold Change/nM (gene LDHA introns, regression over control, 3, 10, 30 nM): 1.05 nM⁻¹ | Fold Change/nM (gene MAP3K2, intron expression, 3, 10, 30 nM): 1.06 nM⁻¹ | Fold Change/nM (gene MAP3K8, intron expression, 3, 10, 30 nM): 1.06 nM⁻¹ | Fold Change/nM (gene MARCH7 introns, regression over control, 3, 10, 30 nM): 1.05 nM⁻¹ | Fold Change/nM (gene MARK2 introns, regression over control, 3, 10, 30 nM): 1.05 nM⁻¹ | Fold Change/nM (gene MAT2A, intron expression, 3, 10, 30 nM): 1.06 nM⁻¹ | Fold Change/nM (gene MDM2 introns, regression over control, 3, 10, 30 nM): 1.05 nM⁻¹ | Fold Change/nM (gene MKL1 introns, regression over control, 3, 10, 30 nM): 1.05 nM⁻¹ | Fold Change/nM (gene MX1, intron expression, 3, 10, 30 nM): 1.06 nM⁻¹ | Fold Change/nM (gene MXI1, intron expression, 3, 10, 30 nM): 1.06 nM⁻¹ | Fold Change/nM (gene MYST2 introns, regression over control, 3, 10, 30 nM): 1.05 nM⁻¹ | Fold Change/nM (gene N4BP1 introns, regression over control, 3, 10, 30 nM): 1.05 nM⁻¹ | Fold Change/nM (gene NAB1, intron expression, 3, 10, 30 nM): 1.06 nM⁻¹ | Fold Change/nM (gene NARS // SFXN3, intron expression, 3, 10, 30 nM): 1.06 nM⁻¹ | Fold Change/nM (gene NCKAP1L, intron expression, 3, 10, 30 nM): 1.06 nM⁻¹ | Fold Change/nM (gene NGRN introns, regression over control, 3, 10, 30 nM): 1.05 nM⁻¹ | Fold Change/nM (gene NR4A1 introns, regression over control, 3, 10, 30 nM): 1.05 nM⁻¹ | Fold Change/nM (gene NUP153, intron expression, 3, 10, 30 nM): 1.06 nM⁻¹ | Fold Change/nM (gene OPA1, intron expression, 3, 10, 30 nM): 1.06 nM⁻¹ | Fold Change/nM (gene OTUD4 introns, regression over control, 3, 10, 30 nM): 1.05 nM⁻¹ | Fold Change/nM (gene PAN3, intron expression, 3, 10, 30 nM): 1.06 nM⁻¹ | Fold Change/nM (gene PDE7A introns, regression over control, 3, 10, 30 nM): 1.05 nM⁻¹ | Fold Change/nM (gene PFKFB3 introns, regression over control, 3, 10, 30 nM): 1.05 nM⁻¹ | Fold Change/nM (gene PFTK1 introns, regression over control, 3, 10, 30 nM): 1.05 nM⁻¹ | Fold Change/nM (gene PIAS1 introns, regression over control, 3, 10, 30 nM): 1.05 nM⁻¹ | Fold Change/nM (gene PIK3C3, intron expression, 3, 10, 30 nM): 1.05 nM⁻¹ | Fold Change/nM (gene PPHLN1 introns, regression over control, 3, 10, 30 nM): 1.05 nM⁻¹ | Fold Change/nM (gene PPM1K, intron expression, 3, 10, 30 nM): 1.06 nM⁻¹ | Fold Change/nM (gene PPP4R2, intron expression, 3, 10, 30 nM): 1.06 nM⁻¹ | Fold Change/nM (gene PPP6C, intron expression, 3, 10, 30 nM): 1.06 nM⁻¹ | Fold Change/nM (gene PRKAG2 introns, regression over control, 3, 10, 30 nM): 1.05 nM⁻¹ | Fold Change/nM (gene PTPN1 introns, regression over control, 3, 10, 30 nM): 1.05 nM⁻¹ | Fold Change/nM (gene RAB18 introns, regression over control, 3, 10, 30 nM): 1.05 nM⁻¹ | Fold Change/nM (gene RAB21, intron expression, 3, 10, 30 nM): 1.06 nM⁻¹ | Fold Change/nM (gene RAD21 introns, regression over control, 3, 10, 30 nM): 1.05 nM⁻¹ | Fold Change/nM (gene RAPGEF1 introns, regression over control, 3, 10, 30 nM): 1.05 nM⁻¹ | Fold Change/nM (gene RAPGEF6 // FNIP1, intron expression, 3, 10, 30 nM): 1.06 nM⁻¹ | Fold Change/nM (gene RBM4, intron expression, 3, 10, 30 nM): 1.06 nM⁻¹ | Fold Change/nM (gene RBM16 // TIAM2 introns, regression over control, 3, 10, 30 nM): 1.05 nM⁻¹ | Fold Change/nM (gene RBM17, intron expression, 3, 10, 30 nM): 1.06 nM⁻¹ | Fold Change/nM (gene RBM22 introns, regression over control, 3, 10, 30 nM): 1.05 nM⁻¹ | Fold Change/nM (gene RBM25 introns, regression over control, 3, 10, 30 nM): 1.05 nM⁻¹ | Fold Change/nM (gene RIN3 introns, regression over control, 3, 10, 30 nM): 1.05 nM⁻¹ | Fold Change/nM (gene ROCK1, intron expression, 3, 10, 30 nM): 1.06 nM⁻¹ | Fold Change/nM (gene SEC24C introns, regression over control, 3, 10, 30 nM): 1.05 nM⁻¹
